Among the data in patent publication CN110003338A are binding values, retold here.

Results are given in words; binding and its absence hold for the method and conditions named. Some results given as binding are weak or reduced against the parent protein; the word gives no strength.

The target in this experiment is T1, 人OX40 (soluble antigen in the Fortebio assay) (human) (UniProt P43489).
T1 sequence (looked up): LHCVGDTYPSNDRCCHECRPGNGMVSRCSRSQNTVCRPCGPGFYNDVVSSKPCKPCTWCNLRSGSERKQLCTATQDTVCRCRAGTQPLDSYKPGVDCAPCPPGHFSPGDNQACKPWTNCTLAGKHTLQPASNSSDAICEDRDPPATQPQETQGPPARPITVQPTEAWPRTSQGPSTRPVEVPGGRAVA
Description: BLI (Fortebio), antibody captured on ProA sensor, human OX40 at 400 and 200 nM.

B1: 抗OX40单克隆抗体6A6 (antibody, V domains shown)
VH: EVQLQQSGPELVKPGASVKISCKASGYSFTGYYMNWVKQSPEKSLEWIGEINPSTGGTTYNQKFKAKATLTVDKSSSTAYMQLKSLTSEDSAVYYCARSGLPYYDVDYWGQGTTLTVSS
VL: DIQMTQSPSSLSASLGERVSLTCRASQEISGYLSWLHQKPDGTIKRLIYAASTLDSGVPKRFSGSRSGSDYSLTISSLESEDFADYYCLQYASYPLTFGAGTNLELK
For the molecule B1, the binding result is “binds”.

B2: 抗OX40单克隆抗体4F2 (antibody, V domains shown)
VH: DVQLQESGPGLVKPSQSLSLTCSVTGYSITSGYNWNWIRQFPGNKLEWMGYISYDGSNNYNPSLKNRISITRDTSKNQFFLKLNSVTTEDTATYYCARQGSSGHFYYAMDYWGQGTSVTVSS
VL: DIVMTQAHKFMSTSVGDRVSITCKASQDVSSAVAWYQQKPGQSPKLLIYWASIRHTGVPDRFTGSGSGTDYTLTISSVQAEDLALYYCQQHYSTPWTFGGGTKLEIK
For the molecule B2, the binding result is on record as “binds”.
